Measurements taken from PMC4330383.
No constants are given. Whether binding was seen depends on the method and setting.

Chains of the proteins cited; added tags and fusions are not shown. Residues count along the entry.
UniProt Q9Y294, residues 1-156: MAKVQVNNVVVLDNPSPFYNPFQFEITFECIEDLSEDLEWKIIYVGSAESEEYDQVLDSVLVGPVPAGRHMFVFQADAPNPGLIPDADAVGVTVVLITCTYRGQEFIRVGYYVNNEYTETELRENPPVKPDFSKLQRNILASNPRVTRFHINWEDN

Assays:
ASF1a (1–156) (human) [1] = molecular target: ASF1a (1–156) (human) (UniProt Q9Y294); test: SEC-MALS; Superdex 200 10/300 GL Increase, 50 mM Tris pH 8.0, 0.5 M NaCl, 20°C; both purified
ASF1a (1–156) (human) [2] = molecular target: ASF1a (1–156) (human) (UniProt Q9Y294); test: SEC-MALS; Superdex 200 10/300 GL Increase, 50 mM Tris pH 8.0, 1.5 M NaCl; for H3-H4 alone: tetramer of two H3-H4 dimers; both purified

binding (ASF1a (1–156) (human) [1]): no binding
binding (ASF1a (1–156) (human) [2]): no binding
Substance: ASF1a (1–156) (from UniProt Q9Y294 1-156) (domain or fragment; other documents disagree on this pair)
